Paper PMC9883169
No constants are given. Whether binding was seen depends on the method and setting. In cells and extracts the contact can be indirect. Some entries that bind do so weakly or less than the wild type. For part of these data: Where a sequence is shown, tags or fusion partners need not be part of it.

The chains behind the UniProt entries cited, without tags or fusion partners.
UniProt P61244: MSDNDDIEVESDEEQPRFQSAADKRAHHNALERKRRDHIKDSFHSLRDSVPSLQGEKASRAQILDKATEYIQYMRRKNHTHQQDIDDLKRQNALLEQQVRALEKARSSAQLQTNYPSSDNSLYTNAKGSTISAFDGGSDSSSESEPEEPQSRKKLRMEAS

How the values were obtained:
Flag-USP1 = target: T1, Flag-USP1 (UniProt O94782); test: co-IP; 293T cells transfected with Flag-USP1 and HA-MAX; USP1 immunoprecipitated with anti-Flag antibody, HA-MAX examined by western blotting; control IP with IgG
T1 sequence: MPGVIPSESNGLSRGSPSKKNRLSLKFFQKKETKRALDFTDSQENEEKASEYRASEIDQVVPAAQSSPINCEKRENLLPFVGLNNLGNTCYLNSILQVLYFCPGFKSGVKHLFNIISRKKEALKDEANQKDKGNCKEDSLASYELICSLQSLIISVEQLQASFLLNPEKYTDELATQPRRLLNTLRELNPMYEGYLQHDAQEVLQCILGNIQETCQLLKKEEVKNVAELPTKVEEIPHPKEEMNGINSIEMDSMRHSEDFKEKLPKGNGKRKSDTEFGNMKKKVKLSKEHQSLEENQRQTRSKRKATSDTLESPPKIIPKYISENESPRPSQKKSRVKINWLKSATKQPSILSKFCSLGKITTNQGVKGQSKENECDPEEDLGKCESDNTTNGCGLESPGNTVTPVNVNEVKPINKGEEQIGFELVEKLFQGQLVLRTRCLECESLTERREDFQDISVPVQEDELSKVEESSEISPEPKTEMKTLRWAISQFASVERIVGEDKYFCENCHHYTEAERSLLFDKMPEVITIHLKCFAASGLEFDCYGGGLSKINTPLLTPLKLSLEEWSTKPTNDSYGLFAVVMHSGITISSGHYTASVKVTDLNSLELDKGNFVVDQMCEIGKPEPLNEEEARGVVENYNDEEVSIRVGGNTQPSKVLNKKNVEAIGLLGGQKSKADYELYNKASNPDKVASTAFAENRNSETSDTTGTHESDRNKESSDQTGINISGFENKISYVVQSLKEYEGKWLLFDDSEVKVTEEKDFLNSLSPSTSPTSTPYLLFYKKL

[1] = target: T2, USP1 (in 293T cells, precipitated with USP1 antibody) (UniProt O94782); test: co-IP; MAX WT and MAX truncates (HA-tagged) overexpressed in 293T cells; co-IP performed with USP1 antibody, western blotting
T2 sequence: T1 sequence

[2] = target: T3, USP1 (endogenous, RL-4RH cells) (human (endogenous in RL-4RH)) (UniProt O94782); test: co-IP; endogenous proteins in RL-4RH cells; IP with anti-USP1 (MAX blotted), anti-MAX or anti-MYC antibody (USP1 blotted); control IP with IgG
T3 sequence: T1 sequence

| Substance | binding (Flag-USP1) | binding [1] | binding [2] |
| --- | --- | --- | --- |
| HA-MAX (from UniProt P61244 1-160) | binds | binds |  |
| MAX (endogenous, RL-4RH cells) (from UniProt P61244 1-160) |  |  | binds |
